The campaign covered roughly 400,000 compounds. About 5,500 (1.4%) were called active. Inconclusive means that the source gave no clear call. Such entries were picked first, then a sample of the others. Calls come from the whole dose curve; as a rule, active = well fitted cell-killing curve with a large enough effect; inconclusive = small, poorly fitted or top-dose-only effect, or effect the other way; inactive = flat fitted curve, though single readings scatter. Where the call is inconclusive, the potency comes from a doubtful curve fit.
Test: qHTS assay for MDR1-selective chemotherapeutics: Primary screen using the parental adenocarcinoma cell KB-3-1; note: nearly all actives have a fitted effect of over 60% in size
Settings: KB-3-1 viability, CellTiter-Glo ATP luminescence, 72 h; activity change, negative = cytotoxic: at 46.1 µM (top of the series)
Method in brief: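 Cytotoxicity measured as CellTiter-Glo luminescence after 72 h at 37 C. Compound titrations were pinned onto drug-naive KB-3-1 parental adenocarcinoma cells grown in DMEM with 10% FBS, and normalized data fitted to concentration-response curves.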
% is set by controls: 0 for no effect and ±100 for the full control effect; potency is the fitted concentration of half-maximal effect.

Row | Structure (SMILES) | Potency | activity change, negative = cytotoxic
1 | COc1cc(NC(=O)c2ccccc2Cl)c2ncccc2c1 | inconclusive: 18.4 µM [cytotoxic, single point] | 
2 | N#Cc1c(-c2ccccc2)nc(SCc2nc(N)nc(N3CCCCC3)n2)[nH]c1=O | inconclusive: 29.1 µM [cytotoxic, single point] | 
3 | COc1ccc(N/N=C(C)/C(=N/O)C(=O)Nc2ccccc2)cc1 |  | inconclusive: -20.3%
4 | Cc1ccccc1C(=O)NNC(=O)C(=O)N1CCCCC1 | inactive | 
5 | Cc1cc(Cl)ccc1OCCSc1nnc(-c2cccs2)o1 | inactive | 
6 | Cc1cc(C(F)(F)F)nc(CCNCc2c(C(=O)N3CCCC3)nc3ccccn23)n1 | inconclusive: 29.1 µM [rising, single point] | 
7 | C#CCNC(=O)C[C@@H]1C[C@@]2(C(=O)OCC)CCCC=C2N(CCC2=CCCCC2)C1=O | inactive | 
8 | O=C(C[N+]12CN3CN(CN(C3)C1)C2)c1ccc(Cl)cc1 | inactive | 
9 | Cc1nn(-c2ccccc2)c(N)c1N=Nc1ccc(Cl)cc1 | inactive | 
10 | CN(C)CCCSc1nc(-c2ccccc2)nc2c1CCC2 | inactive | 
11 | CC1CCN(C(=S)NCCc2ccccc2)CC1 | inactive | 
12 | CCN(CC(=O)Nc1ccc(OC)cc1)CC(=O)Nc1sc2c(c1C(=O)OC)CCCC2 | inconclusive: 25.9 µM [cytotoxic, single point] | 
13 | COc1ccc(C2CC(c3ccccc3)n3nc(NC(=O)c4cccs4)nc3N2)cc1 (stereo not given) | inconclusive: 29.1 µM [rising, single point] | 
14 | COC(=O)c1sccc1S(=O)(=O)N(CC(=O)Nc1cc(F)ccc1F)c1ccc(C)c(C)c1 | inconclusive: 25.9 µM [cytotoxic, single point] | 
15 | O=C(NC(c1ccco1)c1cc(Cl)c2cccnc2c1O)c1ccsc1 (stereo not given) | inconclusive: 0.461 µM [cytotoxic, full curve, poor fit] | 
16 | CCCOc1ccc(C(=O)C(CCC(CNCC)C(=O)c2ccc(OCCC)cc2)CNCC)cc1 (stereo not given) | active: 5.17 µM | 
17 | O=C(COC(=O)c1ccc(NS(=O)(=O)c2cccs2)cc1O)NCc1ccccc1 | active: 5.8 µM | 
18 | COc1cccc2c3cccc(OC)c3c3[nH]cnc3c12 | inconclusive: 23.1 µM [cytotoxic, single point] | 
19 | COC(=O)c1ccc2c(c1)N(CC(=O)Nc1ccc(C)cc1Cl)C(=O)c1ccccc1S2 | inconclusive: 18.4 µM [cytotoxic, single point] | 
20 | C=CCNc1nc(Nc2ccc(OC)c(OC)c2)c2sc(-c3ccccc3)cc2n1 | active: 2.06 µM | 
21 | O=C1C=C(c2cccc(Cl)c2)C[C@@H](c2ccc3c(c2)OCO3)C1 | inconclusive: 23.1 µM [cytotoxic, single point] | 
22 | CC(C)(C)Nc1nc(N2CCCC2)nc(N2CCCC2)n1 | inconclusive: 18.4 µM [cytotoxic, single point] | 
23 | CCc1ccc(C(=O)/C=C/c2ccc([N+](=O)[O-])o2)cc1 | inconclusive: 29.1 µM [cytotoxic, partial curve, poor fit] | 

A few values from the entries so far:
Potency with CN(C)CCCSc1nc(-c2ccccc2)nc2c1CCC2 reads inactive
Potency with O=C(NC(c1ccco1)c1cc(Cl)c2cccnc2c1O)c1ccsc1 (stereo not given) reads inconclusive: 0.461 µM [cytotoxic, full curve, poor fit]

More entries follow:

Row | Structure (SMILES) | Potency | activity change, negative = cytotoxic
24 | COc1ccc(C(=O)C2CCCN(Cc3cc(Cl)ccc3O)C2)c(OC)c1 (stereo not given) | inconclusive: 20.6 µM [cytotoxic, single point] | 
25 | CC1CC(=O)Nc2ccccc2N1S(=O)(=O)c1ccc(Br)cc1 (stereo not given) | inactive | 
26 | O=C1Nc2ccccc2/C1=N\N=C\c1ccc(O)c(O)c1 | inconclusive: 23.1 µM [cytotoxic, partial curve, poor fit] | 
27 | O=C(NC12CC3CC(CC(C3)C1)C2)c1ccc([N+](=O)[O-])o1 | active: 5.17 µM | 
28 | CCCOc1ccc(N2C(=O)CC(N3CCC(C(=O)OCC)CC3)C2=O)cc1 (stereo not given) | inactive | 
29 | CCOC(=O)c1cc2c(=O)n3ccccc3nc2n(C(C)C)c1=NC(=O)c1c(-c2c(F)cccc2Cl)noc1C | inconclusive: 20.6 µM [cytotoxic, single point] | 
30 | CC1Cc2ccccc2N1CC(=O)NC(c1ccccc1)c1ccccc1 (stereo not given) | inconclusive: 32.6 µM [cytotoxic, single point] | 
31 | CO/N=C/C(=N\Nc1cc(OC)cc(OC)c1)C(=O)c1ccccc1 | inconclusive: 3.66 µM [cytotoxic, partial curve, poor fit] | 
32 | CC(C)c1ccc(C(=O)N2CCCC(c3cc(C(=O)Nc4ccccc4Cl)no3)C2)cc1 (stereo not given) | active: 18.4 µM | 
33 | CCC1CCCCN1S(=O)(=O)c1ccc(C(=O)Nc2nnc(-c3cccs3)o2)cc1 (stereo not given) | inconclusive: 3.98 µM [cytotoxic, full curve, poor fit] | 
34 | Cc1cc(NC(=O)C(C)SCC(=O)N(C)Cc2c(F)cccc2Cl)no1 (stereo not given) | inconclusive: 13 µM [cytotoxic, single point] | 
35 | Cc1ccc(C(C)(C)C)cc1S(=O)(=O)Nc1cccc(C(=O)N2CCN(c3ccccn3)CC2)c1 | inconclusive: 29.1 µM [cytotoxic, single point] | 
36 | O=C(NNc1nc(=O)c2cccnc2s1)c1ccccc1O | inconclusive: 29.1 µM [cytotoxic, single point] | 
37 | CCn1c(O)c(C=Nc2ccccc2)n(-c2ccccc2)c1=S | active: 5.8 µM | 
38 | CCOc1ccc(C(=O)NC(C(=O)N2CCC2)C(C)C)cc1 (stereo not given) | inactive | 
39 | O=C(CN1CCN(Cc2ccccc2)CC1)N1CCCc2c1c(=O)oc1ccc(O)cc21 | inconclusive: 29.1 µM [cytotoxic, single point] | 
40 | NC1=CC(=O)C(=O)c2cccnc21 | inconclusive: 18.4 µM [cytotoxic, partial curve, poor fit] | 
41 | CCOc1ccc(C2CC=C(C(C)=O)CN2S(=O)(=O)c2ccc(C)cc2)cc1 (stereo not given) | inactive | 
42 | CCN(CC(=O)Nc1ccc(OC)cc1)C(=O)c1ccc2[nH]c3c(c2c1)CC(C)CC3 (stereo not given) | inconclusive: 18.4 µM [cytotoxic, single point] | 
43 | COc1ccc(NC(=O)C2Cc3c(-c4ccc(NC(C)=O)cc4)ccnc3O2)cn1 (stereo not given) | active: 10.3 µM | 
44 | C/C(=N\Nc1ccccc1)c1cccc(N)c1 | inactive | 
45 | COc1cc(-c2coc3c(C(=O)NCc4ccc(C(F)(F)F)cc4)cccc23)ccc1O | inconclusive: 29.1 µM [cytotoxic, partial curve, poor fit] | 

Source: PubChem BioAssay AID1347075 (National Center for Advancing Translational Sciences (NCATS), 2019)
